Data from US10111897B2, “Compositions and methods for treating cancer with JAK2 activity” (Duke University, priority 2013, dated 2018).

Test system: PrkA
Conditions: 1 μM, 10 μM or 100 μM staurosporine; autophosphorylation and MBP phosphorylation

CN[C@@H]1C[C@H]2O[C@@](C)([C@@H]1OC)n1c3ccccc3c3c4c(c5c6ccccc6n2c5c31)C(=O)NC4 [Staurosporine]
inhibition of PrkA in vitro phosphorylation: inhibits
